AC50 data for 52 compounds are collected here from PubChem BioAssay AID1487 (National Center for Advancing Translational Sciences (NCATS), 2009).

Some of the results follow. Shown are side measurements of this screen, not its main read-out; they come without a call. Most of these compounds were active or inconclusive in the main read-out, so they are no random draw. Potencies come from curve fits of mixed quality, noted in brackets.

The assay can be described thus: qHTS Assay for Modulators of Lamin A Splicing. The conditions noted are these: HeLa LMNA splicing GFP/RFP minigene ratio, 48 h. In outline: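 S3 HeLa stable clones carrying a lamin A-EGFP splicing minigene plus DsRed2 were seeded at 600 cells/well in Opti-MEM with 2% FBS, pin-dosed and incubated 48 h at 37°C. Acumen cytometry (488 nm) gave the GFP/RFP total-intensity ratio.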

Setting [1] is: measured here: GFP splicing reporter channel.
[2] abbreviates: measured here: RFP viability control channel.

`Cc1ccc(S(=O)(=O)C(CNC(=O)COc2ccc(Cl)cc2)c2ccco2)cc1` (stereo not given): the AC50 – broadly, the concentration at which the activity in the assay is half-maximal – under setting [1] is 28.2 µM [falling, partial curve, poor fit] and the AC50 under setting [2] is 12.6 µM [falling, partial curve, poor fit].

Turning to `Cc1ccc(CNC(=O)c2cccc(NC(=O)N3CCSc4ncccc43)c2)cc1`, the AC50 runs as follows: under setting [1], 12.6 µM [falling, single point]; under setting [2], 4.47 µM [falling, partial curve, poor fit].

As to `COc1ccc(CC(=O)N2CCC(Nc3nc4ccccc4n3Cc3ccc(F)cc3)CC2)cc1`, the AC50 under setting [2] was 35.5 µM [rising, single point].

Turning to `O=C1c2ccccc2NC2(CCCC2)N1NS(=O)(=O)c1ccccc1`, the AC50 under setting [1] is 1.41 µM [falling, full curve, poor fit].

As to `COc1ccc(CCn2c(N)c(S(=O)(=O)c3cccs3)c3nc4ccccc4nc32)cc1OC`, under setting [2], the AC50 was 17.8 µM [falling, partial curve, poor fit].

As for `Cc1cccc(NC(=O)c2cc3c(=O)n4ccccc4nc3n(CC(C)C)c2=N)c1`, under setting [2], the AC50 is 0.00316 µM [falling, full curve, poor fit].

As to `Cc1cc(O)cc(O)c1C=NCc1ccco1`, the AC50 under setting [2] is 22.4 µM [rising, single point].

As for `CC(C)(C)c1nc(SCC(=O)NCc2ccco2)c2ccccc2n1`, the AC50 by setting is: under setting [1], 11.2 µM [rising, single point]; under setting [2], 15.8 µM [rising, partial curve, poor fit].

`O=C(NCC1CCCO1)c1cc(-c2ccccc2)on1` (stereo not given): the AC50 under setting [2] was 35.5 µM [falling, single point].

In the case of `COc1cc(C(=O)NNC(=O)C2CC=CCC2C(=O)O)cc(OC)c1OC` (stereo not given), the AC50 runs as follows: under setting [1], 31.6 µM [rising, single point]; under setting [2], 31.6 µM [rising, single point].

Take `O=c1oc2ccccc2cc1NCc1ccccc1O`: the AC50 under setting [2] is 20 µM [rising, single point].

With `Cc1c(C(=O)NC(Cc2ccccc2)c2nc3ccccc3[nH]2)cccc1[N+](=O)[O-]` (stereo not given), the AC50 is, setting by setting: under setting [1], 3.55 µM [falling, partial curve]; under setting [2], 3.16 µM [falling, partial curve, poor fit].

For `Cc1ccc(S(=O)(=O)CCC(=O)NCc2ccccc2Cl)cc1`, the AC50 under setting [1] is 0.0112 µM [falling, full curve, poor fit] and the AC50 under setting [2] was 0.0501 µM [falling, full curve, poor fit].

Turning to `Cn1c(/C(C#N)=C/c2ccncc2)nc2ccccc21`, the AC50 was 35.5 µM [falling, partial curve, poor fit] under setting [1] and 0.0224 µM [falling, full curve, poor fit] under setting [2].

On to `O=C(Nc1ccccc1Cl)c1cc[n+](Cc2ccc([N+](=O)[O-])cc2)cc1`, for which, under setting [1], the AC50 is 3.16 µM [rising, partial curve].

Take `O=C(/C=C/c1ccccc1[N+](=O)[O-])NCCN1C(=O)S/C(=C\c2ccc(F)cc2)C1=O`: the AC50 under setting [1] was 0.794 µM [falling, full curve, poor fit] and the AC50 under setting [2] is 1.26 µM [falling, full curve, poor fit].

`COc1ccc(CCNC(=O)c2ccc(-c3ccc([N+](=O)[O-])cc3Cl)o2)cc1OC`: the AC50 under setting [2] is 5.01 µM [rising, full curve].

Consider `CO[C@H]1C[C@@H](O[C@@H]2[C@H](C)[C@H](O[C@@H]3O[C@@H](C)C[C@@H](N(C)C)[C@@H]3O)[C@H](C)C[C@]3(CO3)C(=O)[C@H](C)[C@H](O)[C@H](C)[C@H](C)OC(=O)[C@@H]2C)O[C@@H](C)[C@H]1O`, for which, under setting [2], the AC50 was 0.00158 µM [rising, full curve, poor fit].

For the compound `Cc1c(Cl)ccc2sc(NC(=O)CN3C(=O)c4ccccc4C3=O)nc12`, under setting [1], the concentration at half-maximal activity (AC50) is 0.0708 µM [falling, full curve].

Take `Cc1ccc(NC(=O)COC(=O)c2ccc(Cl)cc2)cc1S(=O)(=O)N(C)C`: under setting [2], the AC50 was 0.00447 µM [falling, full curve, poor fit].

As for `COc1ccccc1N1CCN(CC(O)COCCOc2ccc(Br)cc2)CC1` (stereo not given), the AC50 by setting is: under setting [1], 8.91 µM [rising, partial curve]; under setting [2], 22.4 µM [rising, partial curve].

In the case of `COc1cc(-c2nnc(-c3cccs3)o2)cc(OC)c1OC`, under setting [1], the AC50 was 35.5 µM [falling, partial curve, poor fit].

Regarding `Cc1oc(-c2ccc(Cl)cc2)nc1CN1CCCC(C(=O)NCCCN2CCOCC2)C1` (stereo not given), the AC50 by setting is: under setting [1], 14.1 µM [rising, single point]; under setting [2], 17.8 µM [rising, single point].

On to `COc1ccccc1Nc1ncccc1C(=O)NCc1ccccc1`, for which the AC50 under setting [1] is 35.5 µM [rising, single point].

As to `CC(=O)c1ccc(N2CCN(C(=O)c3ccc4c(=O)n(-c5ccccc5)c(=O)[nH]c4c3)CC2)cc1`, the AC50 reads like this: under setting [1], 14.1 µM [rising, single point]; under setting [2], 22.4 µM [rising, single point].

As to `COc1ccc(CN(C(=O)c2ccco2)c2ccc(C)c(C)c2)cc1`, the AC50 under setting [2] is 12.6 µM [falling, single point].

`CCCCCn1c(=O)c(Cc2ccccc2)c(O)c2ccccc21`: the half-maximal activity concentration (AC50) under setting [1] was 14.1 µM [rising, single point] and the AC50 under setting [2] was 25.1 µM [rising, single point].

As for `CCc1ccccc1NC(=O)c1cccc(NC(=O)/C=C/c2ccco2)c1`, under setting [2], the AC50 was 11.2 µM [rising, partial curve].

As to `O=C(Nc1ccc2oc(-c3ccccc3)nc2c1)c1ccc2c(c1)OCCO2`, the half-maximal activity concentration (AC50) is 12.6 µM [rising, single point] under setting [1] and 15.8 µM [rising, single point] under setting [2].

Turning to `Cc1ccc(Nc2ccc(S(=O)(=O)N3CCOCC3)cc2[N+](=O)[O-])cc1C`, the concentration at half-maximal activity (AC50) under setting [1] is 35.5 µM [rising, single point].

For the compound `CCOC(=O)c1cc(-c2ccc(OC)cc2)n(CCC(=O)Nc2cccc(C(C)=O)c2)c1C`, the AC50 was 8.91 µM [falling, partial curve] under setting [1] and 14.1 µM [falling, partial curve, poor fit] under setting [2].

As for `CC(=O)c1ccc(OCC(=O)c2cc(C)n(-c3ccc4c(c3)OCO4)c2C)cc1`, under setting [2], the AC50 was 1.26 µM [rising, full curve].

`Cc1ccc(S(=O)(=O)NC(=O)Nc2cc(C)on2)cc1`: the AC50 under setting [2] was 0.00316 µM [rising, full curve, poor fit].

On to `CCOc1ccc(OCC)c(NC(=O)C2CCCN(c3nc(C)cc(C)n3)C2)c1` (stereo not given), for which the AC50 was 35.5 µM [rising, single point] under setting [1] and 35.5 µM [rising, single point] under setting [2].

For the compound `CCCCSC(=S)NC1CCS(=O)(=O)C1` (stereo not given), the AC50 runs as follows: under setting [1], 14.1 µM [rising, single point]; under setting [2], 20 µM [rising, single point].

On to `Clc1nc(NCCN2CCOCC2)nc(NCc2ccccc2)n1`, for which, under setting [2], the AC50 was 0.1 µM [rising, full curve, poor fit].

For `O=C(Nc1cccc(F)c1)c1ccc(-c2ccccc2Cl)o1`, the AC50 reads like this: under setting [1], 11.2 µM [rising, partial curve]; under setting [2], 15.8 µM [rising, partial curve].

With `COc1ccc(CC(=O)Nc2ccc3nc(C)sc3c2)cc1OC`, the AC50 under setting [2] was 12.6 µM [rising, single point].

Consider `O=C(CCc1nc2cccnc2n1Cc1ccccc1)NCCc1ccc(Cl)cc1`, for which the AC50 by setting is: under setting [1], 5.01 µM [rising, partial curve, poor fit]; under setting [2], 5.62 µM [rising, partial curve, poor fit].

`O=C(c1cc(O)c(O)c([N+](=O)[O-])c1)c1ccccc1F`: the AC50 is 6.31 µM [falling, full curve, poor fit] under setting [1] and 5.62 µM [falling, full curve, poor fit] under setting [2].

As to `COc1ccccc1OCCOc1ccc(C(=O)c2ccccc2)cc1`, the AC50 by setting is: under setting [1], 20 µM [rising, partial curve, poor fit]; under setting [2], 28.2 µM [rising, partial curve].

With `COc1ccc(N2CCN(Cc3cc(=O)oc4cc(C)c(Cl)c(C)c34)CC2)cc1`, the AC50 under setting [2] is 1 µM [rising, partial curve, poor fit].

Regarding `O=C(Nc1ccccc1)Nc1ccc(S(=O)(=O)N2CCCCC2)cc1`, the AC50 under setting [2] was 12.6 µM [rising, partial curve, poor fit].

For `Nc1ccc(N2CCN(C(=O)c3ccco3)CC2)cc1`, the AC50 under setting [1] was 7.94 µM [falling, partial curve].

As to `CCOc1ccc(NC(=O)Cn2cncc2-c2ccc([N+](=O)[O-])cc2)cc1`, the AC50 was 25.1 µM [falling, single point] under setting [1] and 11.2 µM [falling, partial curve] under setting [2].

With `c1ccc(CNc2ncnc3sc4c(c23)CCC4)nc1`, the AC50 runs as follows: under setting [1], 11.2 µM [rising, partial curve]; under setting [2], 14.1 µM [rising, single point].

With `Cc1ccccc1N=Nc1ccc(O)c2ncccc12`, the AC50 by setting is: under setting [1], 4.47 µM [rising, partial curve]; under setting [2], 3.98 µM [rising, full curve].

For the compound `Cc1cccc(C(=O)NC(NC(=S)Nc2ccc(S(N)(=O)=O)cc2)C(Cl)(Cl)Cl)c1` (stereo not given), the AC50 under setting [2] is 14.1 µM [rising, single point].

As for `CCOC(=O)C1=C(C)NC(C)=C(C(=O)OCC)C1C(=O)OCC(=O)N1CCc2ccccc21`, under setting [1], the AC50 is 31.6 µM [rising, single point].

Consider `CCOC(=O)N1CCN(c2ccc(O)cc2)CC1`, for which the AC50 under setting [1] is 17.8 µM [falling, single point].

Consider `CC(C)c1cccc(C(C)C)c1NC(=O)COC(=O)c1ccc(OCC(=O)Nc2cccc(C(F)(F)F)c2)cc1`, for which, under setting [2], the AC50 is 0.501 µM [rising, full curve, poor fit].

Consider `Oc1c(C(c2ccc(Cl)cc2Cl)N2CCCC2)sc2nc(-c3ccco3)nn12` (stereo not given), for which the AC50 under setting [1] is 2.82 µM [falling, partial curve, poor fit].
